# Measurements: PubChem BioAssay AID1347426 (Functional Genomics Laboratory (NCATS/FGL), 2020)
# About 1,400 (4.5%) of roughly 31,000 sequences were called active.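 Rule for the calls: active = median seed-adjusted z-score above 1 or below -1; inactive = the rest.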 This is one part of the list.
# Assay: Novel Modifiers of Survival Motor Neuron (SMN) Protein: Gene Identification via Genome-wide siRNA Screen;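 note: luminescence tracks full-length SMN protein made from the SMN2 reporter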
# Details: HEK293T SMN2-luciferase reporter, siRNA knockdown, 72 h; actives lie on both sides
# Outline: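 siRNA screen, 10418 genes ×3 siRNAs; 1 pmol/well, lipid reverse transfection into HEK293T SMN2-luc reporter line. 72 h, 37 °C, 5% CO2; ONE-Glo readout. Data: neg-ctrl normalized, log10, MAD; hit = MAD >1.0 or < -1.0.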
row,Sequence,median seed-adjusted z-score
1,GCAAAUGACUUGGAGUGUUTT against DNER,inactive: -0.316
2,CGGUGUACAAGGCGACUUATT against MOS,inactive: 0.105
3,GGUAAGGUAGAGUCAAUUATT against ATP6V1A,inactive: -0.0106
4,GGCAUACCAGGAGACAAUATT against RAG2,inactive: 0.138
5,GCAUAUACCAUCGCUGUAATT against SUPT16H,active: 1.2
6,GGAUUAGCGAGAAGAAAAUTT against CSNK1D,inactive: 0.202
7,GCAUGAACGACCCAGAAUATT against RNF31,inactive: -0.687
8,CAUCCACAACCUUGAGGAATT against SIGLEC12,inactive: 0.226
9,AGCAAGAAGUGGACAUAGATT against MXD4,inactive: 0.688
10,UCCUAAGGCUUAUGAAGUUTT against ADH1B,inactive: 0.325
11,GCUGACGAAUUCAAAGUCATT against APOA4,inactive: 0.195
12,CCUUAGUACUCUUCUAGCATT against MSX1,inactive: 0.757
13,GGUUUCUAAUGAUAACAAATT against PCDHB12,inactive: -0.0664
14,CACUUGCUAAGGAUCCUAATT against PPT1,inactive: 0.727
15,ACAGCGACCUUGCAAAGAATT against ZNF496,inactive: -0.971
16,GGAUAUCACAGAAGGAUAUTT against ANXA4,inactive: -0.0932
17,GGAUGAUGACAGUCACGAATT against CARD11,inactive: 0.22
18,CACAGAUCAUUAUCUAAAUTT against LONP2,active: 1.52
19,GGUGGAAUUUUCAAGAUAATT against RGN,inactive: 0.132
20,GGAUCUAUUUUGGACCGAATT against ABCE1,inactive: -0.0527
21,UGAUGAUGGGUGUCCAUUUTT against DMRT3,inactive: 0
22,GGAAUCUGCUUACAGGUCATT against IPO7,inactive: -0.143
23,CCCUUGCCCUAGAUAGUUUTT against HYAL2,inactive: 0.056
24,GUACCGGAGGGAUAUCAGATT against CDH18,inactive: 0.21
25,CGAUUAUGUUUGGUCCAGATT against CANX,inactive: 0.471
26,AGACAUUAAAGAAUGCAUATT against LHX4,inactive: 0.0795
27,AGUUCUUGGUUAUUGGAAATT against RAB4A,inactive: 0.0022
28,GCAUUGGACUCAUCACCAATT against GPR12,inactive: 0.437
29,CAUCUAUCUGGAGAGCAAATT against JMJD3,inactive: 0.871
30,GGCCCUGAUUGAUCAUGGATT against CYP2C18,inactive: 0.229

# Eight entries from above, with bars between the fields.
row | Sequence | median seed-adjusted z-score
3 | GGUAAGGUAGAGUCAAUUATT against ATP6V1A | inactive: -0.0106
4 | GGCAUACCAGGAGACAAUATT against RAG2 | inactive: 0.138
6 | GGAUUAGCGAGAAGAAAAUTT against CSNK1D | inactive: 0.202
11 | GCUGACGAAUUCAAAGUCATT against APOA4 | inactive: 0.195
12 | CCUUAGUACUCUUCUAGCATT against MSX1 | inactive: 0.757
17 | GGAUGAUGACAGUCACGAATT against CARD11 | inactive: 0.22
18 | CACAGAUCAUUAUCUAAAUTT against LONP2 | active: 1.52
29 | CAUCUAUCUGGAGAGCAAATT against JMJD3 | inactive: 0.871
